We go through six compounds from article PMC9027599, “Secondary Metabolites in Basil, Bio-Insecticide, Inhibition Effect, and In Silico Molecular Docking against Proteolytic Enzymes of the Red Palm Weevil (Rhynchophorus ferrugineus)” (Plants, 2022).

Series [1] has as its system R. ferrugineus fourth larvae. In words: Topical application (contact insecticide) on larvae. In kind it is in vivo, Rhynchophorus ferrugineus. Particulars: probit analysis of larval mortality; value ± standard error.
In another series the test system is R. ferrugineus adults. The conditions noted are these: probit analysis of adult mortality; value ± standard error.

Turning to `O=C(O)C[C@H](C(=O)O)[C@@H](O)C(=O)O` [Isocitric acid], the “Slope (4th Larvae)” value in series [1] worked out at 1.08 ± 0.30. For the same compound, in the series on R. ferrugineus adults, the “Slope (Adult)” value is recorded as 2.12 ± 0.19.
As for `O=C(/C=C/c1ccc(O)c(O)c1)O/C=C\c1ccc(O)c(O)c1` [Nepetoidin B], the “Slope (4th Larvae)” value in series [1] turned out to be 1.97 ± 0.23. Moreover, the “Slope (Adult)” value in the series with R. ferrugineus adults was determined as 2.82 ± 0.20.
Turning to `C[C@@H]1O[C@@H](OC[C@H]2O[C@@H](Oc3c(-c4ccc(O)c(O)c4)oc4cc(O)cc(O)c4c3=O)[C@H](O)[C@@H](O)[C@@H]2O)[C@H](O)[C@H](O)[C@H]1O` [Quercetin-3-O-rutinoside], the “Slope (4th Larvae)” value in series [1] was 1.42 ± 0.29. Further, in the series on R. ferrugineus adults, the “Slope (Adult)” value turned out to be 2.89 ± 0.24.
With `O=C(/C=C/c1ccc(O)c(O)c1)O[C@H](Cc1ccc(O)c(O)c1)C(=O)O` [Rosmarinic acid], the “Slope (4th Larvae)” value in series [1] was determined as 1.94 ± 0.25. Further, in the series with R. ferrugineus adults, the “Slope (Adult)” value was 2.61 ± 0.22.
On the same counts, the results for `COc1ccc(-c2cc(=O)c3c(O)c(OC)c(OC)cc3o2)cc1` [Salvigenin, 5-Hydroxy-6,7,4′-trimethoxyflavone] are 2.03 ± 0.22 and 2.87 ± 0.20.
Take `C[C@H]1[C@H](C)CC[C@]2(C(=O)O)CC[C@]3(C)C(=CC[C@@H]4[C@@]5(C)CC[C@H](O)C(C)(C)[C@@H]5CC[C@]43C)[C@H]12` [Ursolic acid]: in series [1], the “Slope (4th Larvae)” value was determined as 1.46 ± 0.28. In addition, in the series with R. ferrugineus adults, the “Slope (Adult)” value worked out at 2.85 ± 0.23.
